According to article PMC10904810:
No constants are given. Whether binding was seen depends on the method and setting. In cells and extracts the contact can be indirect. These calls come from enrichment with a bait or labelling near it, and not all partners need be listed. Sequences can lack the tags named with a protein.

Molecular target: T1, Flag-tagged RB1 (UniProt P06400)
T1 sequence: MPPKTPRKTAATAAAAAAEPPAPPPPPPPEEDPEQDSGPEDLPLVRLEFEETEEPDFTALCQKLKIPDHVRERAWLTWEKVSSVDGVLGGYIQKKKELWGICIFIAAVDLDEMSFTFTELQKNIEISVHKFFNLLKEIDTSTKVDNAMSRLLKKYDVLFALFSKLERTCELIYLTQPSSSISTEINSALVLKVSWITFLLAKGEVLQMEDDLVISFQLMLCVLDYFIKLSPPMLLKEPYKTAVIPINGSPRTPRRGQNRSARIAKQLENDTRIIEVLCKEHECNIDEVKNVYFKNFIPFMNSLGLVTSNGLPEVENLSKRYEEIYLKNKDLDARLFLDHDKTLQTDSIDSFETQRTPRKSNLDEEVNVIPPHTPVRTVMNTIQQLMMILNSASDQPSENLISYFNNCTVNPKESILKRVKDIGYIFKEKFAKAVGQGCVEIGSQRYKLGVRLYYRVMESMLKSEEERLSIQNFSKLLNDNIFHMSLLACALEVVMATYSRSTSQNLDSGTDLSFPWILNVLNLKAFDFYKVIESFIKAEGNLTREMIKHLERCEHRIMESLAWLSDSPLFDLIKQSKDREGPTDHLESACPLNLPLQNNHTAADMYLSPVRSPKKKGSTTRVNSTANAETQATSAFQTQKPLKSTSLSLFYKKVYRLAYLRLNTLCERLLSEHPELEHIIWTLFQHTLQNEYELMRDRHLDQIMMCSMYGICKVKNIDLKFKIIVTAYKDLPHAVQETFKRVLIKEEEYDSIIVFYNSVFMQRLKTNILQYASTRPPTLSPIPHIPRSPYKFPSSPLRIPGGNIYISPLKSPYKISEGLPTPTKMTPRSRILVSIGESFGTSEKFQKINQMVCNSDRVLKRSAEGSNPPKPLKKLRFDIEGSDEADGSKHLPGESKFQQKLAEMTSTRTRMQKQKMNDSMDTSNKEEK
Assay: affinity purification with mass spectrometry; 293T cells transfected with Flag-tagged RB1 with or without MYC, 48 h; lysed with IP buffer, Flag-conjugated agarose beads, eluted with 2% SDS, LC-MS

B1: KLHL42 found by LC-MS in the Flag-RB1 immunoprecipitate (protein, UniProt Q9P2K6 1-505)
chain: MSAEEMVQIRLEDRCYPVSKRKLIEQSDYFRALYRSGMREALSQEAGGPEVQQLRGLSAPGLRLVLDFINAGGAREGWLLGPRGEKGGGVDEDEEMDEVSLLSELVEAASFLQVTSLLQLLLSQVRLNNCLEMYRLAQVYGLPDLQEACLRFMVVHFHEVLCKPQFHLLGSPPQAPGDVSLKQRLREARMTGTPVLVALGDFLGGPLAPHPYQGEPPSMLRYEEMTERWFPLANNLPPDLVNVRGYGSAILDNYLFIVGGYRITSQEISAAHSYNPSTNEWLQVASMNQKRSNFKLVAVNSKLYAIGGQAVSNVECYNPEQDAWNFVAPLPNPLAEFSACECKGKIYVIGGYTTRDRNMNILQYCPSSDMWTLFETCDVHIRKQQMVSVEETIYIVGGCLHELGPNRRSSQSEDMLTVQSYNTVTRQWLYLKENTSKSGLNLTCALHNDGIYIMSRDVTLSTSLEHRVFLKYNIFSDSWEAFRRFPAFGHNLLVSSLYLPNKAET
binding: binds
